Conditions in all cases: stereoisomer not certain
Assay [1] concerns the target T1, OR51D1 (Homo sapiens) (UniProt Q8NGF3).
T1 sequence (whole entry): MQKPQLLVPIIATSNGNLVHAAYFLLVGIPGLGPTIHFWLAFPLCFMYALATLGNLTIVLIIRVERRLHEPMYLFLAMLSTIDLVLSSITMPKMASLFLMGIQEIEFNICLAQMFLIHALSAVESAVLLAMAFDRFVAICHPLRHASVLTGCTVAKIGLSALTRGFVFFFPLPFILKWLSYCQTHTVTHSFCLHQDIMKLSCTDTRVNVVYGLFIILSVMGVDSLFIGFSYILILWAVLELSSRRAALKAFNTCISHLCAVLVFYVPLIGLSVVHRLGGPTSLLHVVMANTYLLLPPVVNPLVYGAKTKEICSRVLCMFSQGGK
In short, it runs like this: (§1)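 Each entry records the cell line, G-protein, co-transfected protein and tags used. Methods varied with the source, often transient luciferase assays in mammalian cell lines. A receptor–molecule pair is called responsive (active) if the original authors judged its signal statistically different from baseline and non-responsive (inactive) otherwise.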

The target of assay [2] is T2, OR51E1 (Homo sapiens) (UniProt Q8TCB6).
T2 sequence (whole entry): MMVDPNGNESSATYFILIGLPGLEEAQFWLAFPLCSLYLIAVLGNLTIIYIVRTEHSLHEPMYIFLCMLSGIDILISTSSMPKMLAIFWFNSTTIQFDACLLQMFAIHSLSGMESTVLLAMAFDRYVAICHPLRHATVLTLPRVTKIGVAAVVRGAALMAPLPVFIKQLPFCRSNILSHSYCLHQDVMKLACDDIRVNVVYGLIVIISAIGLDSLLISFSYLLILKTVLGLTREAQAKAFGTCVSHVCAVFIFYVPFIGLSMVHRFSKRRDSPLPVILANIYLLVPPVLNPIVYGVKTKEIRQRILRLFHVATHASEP
In short, it runs like this: as §1

Assay [3] deals with T3, OR51E2 (Homo sapiens) (UniProt Q9H255).
T3 sequence (whole entry): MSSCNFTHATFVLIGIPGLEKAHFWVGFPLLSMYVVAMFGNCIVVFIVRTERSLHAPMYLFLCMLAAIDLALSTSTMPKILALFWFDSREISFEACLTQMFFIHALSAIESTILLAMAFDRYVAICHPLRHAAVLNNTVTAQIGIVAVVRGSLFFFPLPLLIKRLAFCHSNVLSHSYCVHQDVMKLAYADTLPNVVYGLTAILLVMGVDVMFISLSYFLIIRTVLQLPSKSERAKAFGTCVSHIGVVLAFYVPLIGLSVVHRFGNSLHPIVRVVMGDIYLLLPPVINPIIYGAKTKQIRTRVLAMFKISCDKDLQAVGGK
In short, it runs like this:
as §1

The target in assay [4] is T4, OR51G1 (Homo sapiens) (UniProt Q8NGK1).
T4 sequence (whole entry): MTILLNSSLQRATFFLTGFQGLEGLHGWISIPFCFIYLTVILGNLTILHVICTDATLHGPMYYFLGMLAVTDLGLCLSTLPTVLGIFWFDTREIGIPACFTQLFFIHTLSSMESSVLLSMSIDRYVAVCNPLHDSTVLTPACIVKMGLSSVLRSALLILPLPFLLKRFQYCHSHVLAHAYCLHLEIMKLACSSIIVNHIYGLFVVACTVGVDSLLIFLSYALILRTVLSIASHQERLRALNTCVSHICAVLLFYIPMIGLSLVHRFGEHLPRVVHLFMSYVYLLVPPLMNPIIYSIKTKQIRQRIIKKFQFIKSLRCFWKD
Summed up: as §1

The target in assay [5] is T5, OR51H1 (Homo sapiens) (UniProt Q8NH63).
T5 sequence (whole entry): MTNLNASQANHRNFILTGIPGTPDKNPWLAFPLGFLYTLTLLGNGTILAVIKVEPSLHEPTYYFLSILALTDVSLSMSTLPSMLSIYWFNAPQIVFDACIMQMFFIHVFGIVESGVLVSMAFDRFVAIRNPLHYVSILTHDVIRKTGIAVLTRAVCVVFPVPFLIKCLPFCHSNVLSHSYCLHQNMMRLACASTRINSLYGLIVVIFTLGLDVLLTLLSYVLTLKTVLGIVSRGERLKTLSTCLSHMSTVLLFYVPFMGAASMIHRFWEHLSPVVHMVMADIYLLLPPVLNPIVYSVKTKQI
In short, it runs like this:
as §1

Assay [6] concerns the target T6, OR51E1 (Homo sapiens) (UniProt Q8TCB6).
T6 sequence (whole entry): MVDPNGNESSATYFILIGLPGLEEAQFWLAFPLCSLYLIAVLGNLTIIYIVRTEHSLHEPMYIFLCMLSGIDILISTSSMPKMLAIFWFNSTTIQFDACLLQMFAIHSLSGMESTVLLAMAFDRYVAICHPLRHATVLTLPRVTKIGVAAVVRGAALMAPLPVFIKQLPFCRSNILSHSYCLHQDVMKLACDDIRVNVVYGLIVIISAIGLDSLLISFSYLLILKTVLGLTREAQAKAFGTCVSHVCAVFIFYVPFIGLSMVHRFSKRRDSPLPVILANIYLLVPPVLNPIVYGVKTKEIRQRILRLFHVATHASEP
Summed up:
as §1
The source holds these as a separate data set.

In assay [7] the target is T7, OR51F1 (Homo sapiens) (UniProt A6NGY5).
T7 sequence (whole entry): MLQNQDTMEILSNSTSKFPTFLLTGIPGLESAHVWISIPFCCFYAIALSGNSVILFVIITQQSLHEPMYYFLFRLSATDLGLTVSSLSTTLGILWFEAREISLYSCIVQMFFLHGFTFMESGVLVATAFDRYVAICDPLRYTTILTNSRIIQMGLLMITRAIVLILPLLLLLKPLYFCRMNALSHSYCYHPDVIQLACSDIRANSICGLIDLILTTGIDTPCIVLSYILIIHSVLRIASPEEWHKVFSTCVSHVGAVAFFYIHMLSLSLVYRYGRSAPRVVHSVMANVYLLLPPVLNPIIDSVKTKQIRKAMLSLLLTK
In short, it runs like this:
as §1

Assay [8] addresses T8, OR51F2 (Homo sapiens) (UniProt Q8NH61).
T8 sequence (whole entry): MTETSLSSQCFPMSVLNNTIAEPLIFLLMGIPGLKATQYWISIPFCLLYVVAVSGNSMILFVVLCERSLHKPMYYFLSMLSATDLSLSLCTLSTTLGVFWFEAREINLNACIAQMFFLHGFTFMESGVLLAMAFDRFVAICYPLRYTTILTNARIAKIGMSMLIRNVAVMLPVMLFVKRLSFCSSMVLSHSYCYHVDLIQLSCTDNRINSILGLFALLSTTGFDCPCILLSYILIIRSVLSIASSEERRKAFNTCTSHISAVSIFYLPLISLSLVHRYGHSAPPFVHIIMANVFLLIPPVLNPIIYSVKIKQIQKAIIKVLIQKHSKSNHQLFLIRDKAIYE
In short, it runs like this: as §1

In assay [9] the target is T9, OR51G2 (Homo sapiens) (UniProt Q8NGK0).
T9 sequence (whole entry): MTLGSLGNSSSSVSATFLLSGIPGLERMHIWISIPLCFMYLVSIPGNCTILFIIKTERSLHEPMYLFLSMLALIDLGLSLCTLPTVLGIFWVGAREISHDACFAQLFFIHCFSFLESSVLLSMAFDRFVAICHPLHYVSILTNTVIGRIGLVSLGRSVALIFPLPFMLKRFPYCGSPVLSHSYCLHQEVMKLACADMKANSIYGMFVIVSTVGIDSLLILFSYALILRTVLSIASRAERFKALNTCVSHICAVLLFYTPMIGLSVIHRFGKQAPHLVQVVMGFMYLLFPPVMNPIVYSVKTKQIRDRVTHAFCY
Summed up:
as §1

The entries are a selection whose mix differs from that of the whole data set. The calls were merged from several studies; some rest on single wells. The list shows a part of the results.

As for `COc1cc(C=O)ccc1O`, the “odorant receptor agonist call” value in assay [1], in assay [2], in [3], in assay [4] and in assay [5] was “inactive” in each case.

`CCCCCC(C)=O`: the “odorant receptor agonist call” value in assay [1], in assay [2], in assay [6], in assay [3], in assay [4] and in assay [5] was “inactive” in each case.

For the compound `CC(C)(C)c1ccc(CCC=O)cc1`, the “odorant receptor agonist call” value in [1], in assay [2], in assay [3], in assay [4] and in [5] was “inactive” throughout.

Take `c1cnccn1`: the “odorant receptor agonist call” value in assay [1], in assay [2], in assay [3], in assay [4] and in [5] was “inactive” throughout.

`CC(C)(O)CCCC1=CCC(C=O)CC1` (centres undefined): the “odorant receptor agonist call” value in assay [6] and in assay [3] was “inactive” throughout.

For `C=CC(C)(O)CCC=C(C)C` (centres undefined), the “odorant receptor agonist call” value in [1], in assay [2], in assay [3], in assay [4] and in [5] was “inactive” each time.

Turning to `CC1=NC(C)SC1C` (centres undefined), the “odorant receptor agonist call” value in [1], in assay [2], in [4] and in assay [5] was “inactive” throughout. Further, the “odorant receptor agonist call” value in assay [3] was “active”.

In the case of `COc1cc(C)ccc1O`, the “odorant receptor agonist call” value in assay [1], in assay [2], in assay [3], in assay [4] and in assay [5] was “inactive” throughout.

Consider `CCCCCCCCC=O`, for which the “odorant receptor agonist call” value in [6] and in assay [3] was “inactive” in each case.

As for `CCCCCCCCOC(C)=O`, the “odorant receptor agonist call” value in assay [1], in assay [3], in assay [4] and in assay [5] was “inactive” each time. For the same compound, the “odorant receptor agonist call” value in assay [2] was “active”.

`O=CCc1ccccc1`: the “odorant receptor agonist call” value in [1], in assay [2], in assay [3], in assay [4] and in assay [5] was “inactive” in each case.

In the case of `CCCCCCOC(=O)CCC`, the “odorant receptor agonist call” value in assay [1], in [2], in [3], in assay [4] and in assay [5] was “inactive” throughout.

Regarding `C=C(C)C1CC=C(C)C(=O)C1` (centres undefined), the “odorant receptor agonist call” value in assay [6] and in assay [3] was “inactive” in each case.

As to `O=C1CCCCCCCCCCCCCCO1`, the “odorant receptor agonist call” value in assay [1], in [2], in [3], in [4] and in assay [5] was “inactive” in each case.

Turning to `CC(C)C(=O)O`, the “odorant receptor agonist call” value in [1], in assay [2], in assay [4] and in assay [5] was “inactive” each time. In addition, the “odorant receptor agonist call” value in assay [3] is “active”.

As to `c1ccc(Oc2ccccc2)cc1`, the “odorant receptor agonist call” value in assay [1], in assay [2], in assay [3], in [4] and in assay [5] was “inactive” in each case.

`COC(=O)c1ccccc1O`: the “odorant receptor agonist call” value in [1], in assay [2], in assay [3], in [4] and in [5] was “inactive” throughout.

On to `CC12C=CCC1C1CCC3=CC(=O)CCC3(C)C1CC2` (centres undefined), for which the “odorant receptor agonist call” value in [1], in [2], in [3], in [4] and in assay [5] was “inactive” each time.

Turning to `CCCCO`, the “odorant receptor agonist call” value in assay [1], in [3], in assay [4] and in [5] was “inactive” each time. In addition, the “odorant receptor agonist call” value in assay [2] was “active”.

Turning to `COc1ccccc1O`, the “odorant receptor agonist call” value in [1], in assay [2], in [3], in assay [4] and in [5] was “inactive” throughout.

Regarding `CC(=O)OCC=C(C)CCC=C(C)C`, the “odorant receptor agonist call” value in [1], in [3], in assay [4] and in assay [5] was “inactive” throughout. Besides, in assay [2], the “odorant receptor agonist call” value is “active”.

For the compound `C=CCc1ccc(OC(C)=O)c(OC)c1`, the “odorant receptor agonist call” value in [1], in assay [2], in [4] and in assay [5] was “inactive” throughout. Besides, the “odorant receptor agonist call” value in assay [3] is “active”.

Turning to `CC(C)C=O`, the “odorant receptor agonist call” value in [1], in assay [2], in [3], in assay [4] and in assay [5] was “inactive” in each case.

As to `O=C1CCCCCCCCCCCC(=O)OCCO1`, the “odorant receptor agonist call” value in assay [1], in assay [3] and in [5] was “inactive” each time. For the same compound, the “odorant receptor agonist call” value in [2] and in [4] was “active” in each case.

Consider `CC12C=CCC1C1CCC3CC(=O)CCC3(C)C1CC2` (centres undefined), for which the “odorant receptor agonist call” value in assay [2], in assay [6], in assay [7], in assay [8] and in [9] was “inactive” in each case.

For the compound `CCCCCCC=O`, the “odorant receptor agonist call” value in assay [6] and in assay [3] was “inactive” throughout.

Turning to `CCC=CCCO`, the “odorant receptor agonist call” value in [1], in assay [2], in [3], in [4] and in assay [5] was “inactive” throughout.

For `C=CCc1ccc(OC)c(OC)c1`, the “odorant receptor agonist call” value in [1], in assay [2], in [4] and in [5] was “inactive” in each case. For the same compound, the “odorant receptor agonist call” value in [3] was “active”.

Turning to `CCC1(O)C2(C)CCC(C2)C1(C)C` (centres undefined), the “odorant receptor agonist call” value in assay [1], in [3], in [4] and in assay [5] was “inactive” throughout. Also, the “odorant receptor agonist call” value in assay [2] is “active”.

Values taken from the M2OR odorant receptor database.
